Assay [1] has as its target GAL4 POSHdR bait (pPL269-pGBK-T7 GAL4 POSHdR; aa 53-888 of POSH, RING domain deleted) (human) (UniProt Q7Z6J0). The assay is described as follows: yeast two-hybrid screen, GAL4-BD POSHdR bait against HeLa cDNA GAL4-AD prey library.
Assay [2] has the same target. The assay is described as follows: yeast two-hybrid screen (Table 7: POSH-APs Identified by Yeast Two-Hybrid Screen).
For assay [3] the target is unchanged. The assay is described as follows: yeast two-hybrid screen, GAL4-BD POSHdR bait against HeLa cDNA GAL4-AD prey library. This is another data set of the same source.
For assay [4] the target is unchanged. The assay is described as follows: yeast two-hybrid screen, GAL4-BD POSHdR bait against HeLa cDNA GAL4-AD prey library; growth dependent on bait plasmid.

By UniProt entry, the sequences of proteins in these tests, tags left out. Where a name states a change or a piece, a line headed by the entry shows the natural chain unless it says otherwise.
UniProt Q7Z6J0: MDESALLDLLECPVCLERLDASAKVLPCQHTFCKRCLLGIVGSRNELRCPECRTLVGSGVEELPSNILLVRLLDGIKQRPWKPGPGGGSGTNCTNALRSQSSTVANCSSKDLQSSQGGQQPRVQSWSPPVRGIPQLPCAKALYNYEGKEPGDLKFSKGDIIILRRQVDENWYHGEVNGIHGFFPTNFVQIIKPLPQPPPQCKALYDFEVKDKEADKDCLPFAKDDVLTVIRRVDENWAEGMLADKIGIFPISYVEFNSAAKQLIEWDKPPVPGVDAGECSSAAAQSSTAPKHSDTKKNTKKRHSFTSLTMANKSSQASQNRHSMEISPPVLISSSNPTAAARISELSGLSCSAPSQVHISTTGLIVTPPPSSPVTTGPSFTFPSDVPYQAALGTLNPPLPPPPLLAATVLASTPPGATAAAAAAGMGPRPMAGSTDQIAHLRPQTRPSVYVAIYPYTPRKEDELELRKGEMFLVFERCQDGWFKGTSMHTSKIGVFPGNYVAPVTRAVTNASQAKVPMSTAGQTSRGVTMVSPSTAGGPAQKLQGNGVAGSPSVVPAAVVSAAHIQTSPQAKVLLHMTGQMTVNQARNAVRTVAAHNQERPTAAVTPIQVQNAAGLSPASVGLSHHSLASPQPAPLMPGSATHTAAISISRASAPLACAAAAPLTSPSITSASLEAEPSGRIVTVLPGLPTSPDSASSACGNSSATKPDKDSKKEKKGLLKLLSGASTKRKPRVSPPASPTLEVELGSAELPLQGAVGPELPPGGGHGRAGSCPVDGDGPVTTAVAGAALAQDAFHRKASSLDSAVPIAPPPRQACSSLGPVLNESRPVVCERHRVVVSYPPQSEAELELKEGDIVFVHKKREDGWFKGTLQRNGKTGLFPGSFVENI
UniProt Q13191: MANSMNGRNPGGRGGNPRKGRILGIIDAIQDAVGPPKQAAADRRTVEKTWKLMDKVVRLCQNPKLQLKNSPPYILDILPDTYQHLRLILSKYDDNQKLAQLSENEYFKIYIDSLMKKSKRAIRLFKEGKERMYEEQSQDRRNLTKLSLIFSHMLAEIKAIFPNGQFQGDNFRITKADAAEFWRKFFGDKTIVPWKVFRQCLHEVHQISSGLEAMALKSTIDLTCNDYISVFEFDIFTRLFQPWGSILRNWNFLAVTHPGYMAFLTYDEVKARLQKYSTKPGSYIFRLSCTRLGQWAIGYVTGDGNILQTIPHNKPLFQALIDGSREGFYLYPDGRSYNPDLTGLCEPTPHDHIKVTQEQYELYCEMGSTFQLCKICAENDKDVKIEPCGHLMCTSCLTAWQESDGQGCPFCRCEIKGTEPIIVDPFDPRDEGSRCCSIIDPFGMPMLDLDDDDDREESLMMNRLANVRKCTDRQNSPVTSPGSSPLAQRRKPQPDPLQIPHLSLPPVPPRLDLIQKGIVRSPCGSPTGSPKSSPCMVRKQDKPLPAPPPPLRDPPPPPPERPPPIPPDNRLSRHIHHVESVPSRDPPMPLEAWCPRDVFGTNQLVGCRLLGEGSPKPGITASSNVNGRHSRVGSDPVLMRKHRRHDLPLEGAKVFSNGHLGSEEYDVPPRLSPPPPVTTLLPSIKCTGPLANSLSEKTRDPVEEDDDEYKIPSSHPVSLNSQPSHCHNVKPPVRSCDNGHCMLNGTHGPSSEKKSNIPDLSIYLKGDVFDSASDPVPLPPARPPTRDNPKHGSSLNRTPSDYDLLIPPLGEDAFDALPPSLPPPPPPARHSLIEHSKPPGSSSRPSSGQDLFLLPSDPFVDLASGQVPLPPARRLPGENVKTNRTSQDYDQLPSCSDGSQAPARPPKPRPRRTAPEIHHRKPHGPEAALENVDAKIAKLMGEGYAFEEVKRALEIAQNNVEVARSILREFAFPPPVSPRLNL
UniProt Q9H3P7: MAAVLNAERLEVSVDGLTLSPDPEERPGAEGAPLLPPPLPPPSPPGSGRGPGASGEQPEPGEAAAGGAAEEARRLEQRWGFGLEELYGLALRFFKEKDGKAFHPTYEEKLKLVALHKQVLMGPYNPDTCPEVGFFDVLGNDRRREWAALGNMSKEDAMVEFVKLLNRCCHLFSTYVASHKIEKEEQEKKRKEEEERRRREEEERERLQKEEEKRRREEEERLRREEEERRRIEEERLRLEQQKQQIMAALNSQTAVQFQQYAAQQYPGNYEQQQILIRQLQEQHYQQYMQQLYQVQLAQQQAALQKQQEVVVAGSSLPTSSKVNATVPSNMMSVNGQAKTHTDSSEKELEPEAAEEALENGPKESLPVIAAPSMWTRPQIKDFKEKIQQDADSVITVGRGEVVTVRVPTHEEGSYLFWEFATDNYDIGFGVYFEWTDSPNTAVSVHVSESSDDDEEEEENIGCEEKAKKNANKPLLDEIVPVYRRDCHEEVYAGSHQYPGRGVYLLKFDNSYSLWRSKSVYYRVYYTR
UniProt P10644: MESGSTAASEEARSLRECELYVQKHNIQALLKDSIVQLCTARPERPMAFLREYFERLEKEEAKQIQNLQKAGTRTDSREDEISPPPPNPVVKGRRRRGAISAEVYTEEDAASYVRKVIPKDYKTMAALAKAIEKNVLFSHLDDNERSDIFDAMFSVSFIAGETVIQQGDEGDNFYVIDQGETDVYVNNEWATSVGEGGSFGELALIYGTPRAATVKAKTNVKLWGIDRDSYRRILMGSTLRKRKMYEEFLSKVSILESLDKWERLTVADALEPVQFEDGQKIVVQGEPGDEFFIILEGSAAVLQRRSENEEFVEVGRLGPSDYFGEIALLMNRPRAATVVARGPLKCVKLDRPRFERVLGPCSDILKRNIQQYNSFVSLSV

These are yes or no findings as the source states them, for the method shown. Some results given as binding are weak or reduced against the parent protein; the word gives no strength.

Among the data in US20060287337A1 are binding values, retold here.

Consider “Human CblB protein in 3Gd114 (translation of cbl-B clone 3Gd114) (from UniProt Q13191 634-927)”, for which the binding entry in assay [1] and in assay [2] was “binds” throughout.

Consider “GOCAP1 golgi complex associated protein 1, 60 kDa (clone 3Gd111) (from UniProt Q9H3P7 1-528)”, for which the binding entry in assay [1] and in assay [2] was “binds” throughout.

As to “PRKAR1A (Hs.280342), regulatory subunit of PKA, HeLa cDNA prey clone (from UniProt P10644 1-381)”, in assay [1], the binding entry is “binds”.

B1: HERPUD1 (Hs.146393), HeLa cDNA prey clone (protein, human, UniProt Q15011 1-391, looked up, not shown: large carriers)
chain: MESETEPEPVTLLVKSPNQRHRDLELSGDRGWSVGHLKAHLSRVYPERPRPEDQRLIYSGKLLLDHQCLRDLLPKQEKRHVLHLVCNVKSPSKMPEINAKVAESTEEPAGSNRGQYPEDSSSDGLRQREVLRNLSSPGWENISRPEAAQQAFQGLGPGFSGYTPYGWLQLSWFQQIYARQYYMQYLAATAASGAFVPPPSAQEIPVVSAPAPAPIHNQFPAENQPANQNAAPQVVVNPGANQNLRMNAQGGPIVEEDDEINRDWLDWTYSAATFSVFLSILYFYSSLSRFLMVMGATVVMYLHHVGWFPFRPRPVQNFPNDGPPPDVVNQDPNNNLQEGTDPETEDPNHLPPDRDVLDGEQTSPSFMSTAWLVFKTFFASLLPEGPPAIAN
With B1, the binding result in assay [3] is “binds”.

B2: SPG20 (spartin) (Hs.205088), HeLa cDNA prey clone (protein, human, UniProt Q8N0X7 1-666, looked up, not shown: large carriers)
chain: MEQEPQNGEPAEIKIIREAYKKAFLFVNKGLNTDELGQKEEAKNYYKQGIGHLLRGISISSKESEHTGPGWESARQMQQKMKETLQNVRTRLEILEKGLATSLQNDLQEVPKLYPEFPPKDMCEKLPEPQSFSSAPQHAEVNGNTSTPSAGAVAAPASLSLPSQSCPAEAPPAYTPQAAEGHYTVSYGTDSGEFSSVGEEFYRNHSQPPPLETLGLDADELILIPNGVQIFFVNPAGEVSAPSYPGYLRIVRFLDNSLDTVLNRPPGFLQVCDWLYPLVPDRSPVLKCTAGAYMFPDTMLQAAGCFVGVVLSSELPEDDRELFEDLLRQMSDLRLQANWNRAEEENEFQIPGRTRPSSDQLKEASGTDVKQLDQGNKDVRHKGKRGKRAKDTSSEEVNLSHIVPCEPVPEEKPKELPEWSEKVAHNILSGASWVSWGLVKGAEITGKAIQKGASKLRERIQPEEKPVEVSPAVTKGLYIAKQATGGAAKVSQFLVDGVCTVANCVGKELAPHVKKHGSKLVPESLKKDKDGKSPLDGAMVVAASSVQGFSTVWQGLECAAKCIVNNVSAETVQTVRYKYGYNAGEATHHAVDSAVNVGVTAYNINNIGIKAMVKKTATQTGHTLLEDYQIVDNSQRENQEGAANVNVRGEKDEQTKEVKEAKKKDK
Regarding B2, in assay [3], the binding entry was “binds”.

B3: ARHV (CHP) (Hs.163834), HeLa cDNA prey clone (protein, human, UniProt Q96L33 1-236, looked up, not shown: large carriers)
chain: MPPRELSEAEPPPLRAPTPPPRRRSAPPELGIKCVLVGDGAVGKSSLIVSYTCNGYPARYRPTALDTFSVQVLVDGAPVRIELWDTAGQEDFDRLRSLCYPDTDVFLACFSVVQPSSFQNITEKWLPEIRTHNPQAPVLLVGTQADLRDDVNVLIQLDQGGREGPVPQPQAQGLAEKIRACCYLECSALTQKNLKEVFDSAILSAIEHKARLEKKLNAKGVRTLSRCRWKKFFCFV
With B3, the binding result in assay [3] was “binds”.

B4: RALA, HeLa cDNA prey clone (protein, human, UniProt P11233 1-206, looked up, not shown: large carriers)
chain: MAANKPKGQNSLALHKVIMVGSGGVGKSALTLQFMYDEFVEDYEPTKADSYRKKVVLDGEEVQIDILDTAGQEDYAAIRDNYFRSGEGFLCVFSITEMESFAATADFREQILRVKEDENVPFLLVGNKSDLEDKRQVSVEEAKNRAEQWNVNYVETSAKTRANVDKVFFDLMREIRARKMEDSKEKNGKKKRKSLAKRIRERCCIL
As for B4, the binding result in assay [4] is recorded as “binds”.

B5: GOSR2 (Hs.432552), HeLa cDNA prey clone (protein, human, UniProt O14653 1-212, looked up, not shown: large carriers)
chain: MDPLFQQTHKQVHEIQSCMGRLETADKQSVHIVENEIQASIDQIFSRLERLEILSSKEPPNKRQNARLRVDQLKYDVQHLQTALRNFQHRRHAREQQERQREELLSRTFTTNDSDTTIPMDESLQFNSSLQKVHNGMDDLILDGHNILDGLRTQRLTLKGTQKKILDIANMLGLSNTVMRLIEKRAFQDKYFMIGGMLLTCVVMFLVVQYLT
Regarding B5, the binding entry in assay [3] and in assay [4] was “binds” throughout.
